{"source": "the supplement of paper PMC10338343", "note": "± gives the standard deviation. The list shows a part of the results, in another mix than the full data. The uncertainty is large for many entries."}
{"test_system": "MILI (PIWIL2) piRISC loaded with L1MC piRNA (26 nt)", "assay": "pre-steady-state target cleavage rate (min^-1); higher = faster piRNA-guided slicing of the target", "conditions": "guide: L1MC piRNA 5'p-UAACUAAAUACUAUGCAAGCUGUAGG; auxiliary factor: 500 nM mouse GTSF1", "protocol": "(§1)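 Cleave-'n-Seq: a library of target RNAs (target site embedded in constant flanks, ACAGCATTCCGCGTTAGTGATATCCG... 5' flank; DNA-blocked outside the site) at 0.1 nM was incubated with 1 nM active mouse MILI or MIWI piRISC (synthetic 5'-monophosphorylated piRNA guide) with or without 500 nM mouse GTSF1 at 33 °C for 1 min to 16 h. Uncleaved targets were sequenced and normalised to non-target controls, and the pooled three trials were fitted to a burst-and-steady-state model to give the pre-steady-state cleavage rate (min^-1; k3 is constrained to at most 1e-4). Sequence is the target site only; target names encode pairing extent (gX:gY) and contiguous / 1-mismatch / 2-mismatch / bulge geometry. Fits with R² ≤ 0 are excluded.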"}
{"sequence": "UCCUGGAUGUGCUUGCAUAGAUAUUAGAAA", "pre-steady-state target cleavage rate": "0.000408 ± 0.018"}
{"sequence": "UCCUGCUAGAGCUUGCAUAGUAAUUAGUUA", "pre-steady-state target cleavage rate": "0.19 ± 0.02"}
{"sequence": "UCCUGGAUGUCGUUGCAUAGUUUUAAGUUA", "pre-steady-state target cleavage rate": "0.00331 ± 0.0048"}
{"sequence": "UCCUGGAACUGCUUGCAUAGUAUUAAGUUA", "pre-steady-state target cleavage rate": "0.173 ± 0.022"}
{"sequence": "UCCUCCUAGAGCUUGCAUAGUAUUUACAAA", "pre-steady-state target cleavage rate": "0.0915 ± 0.027"}
{"sequence": "UCCUGGAUGAGCUUGCACUAGUAUUUAGUUA", "pre-steady-state target cleavage rate": "0.00272 ± 0.004"}
{"sequence": "UCCUGGAUGUCGUUGCAUAGUAUUUUCAUA", "pre-steady-state target cleavage rate": "0.00148 ± 0.0076"}
{"sequence": "UCCUCCUACAGCUUGAAUAGUAUUUAGUUA", "pre-steady-state target cleavage rate": "0.283 ± 0.015"}
{"sequence": "UCCUGGAUGUCGUAGCAUACUAUUUAGUUA", "pre-steady-state target cleavage rate": "0.00267 ± 0.004"}
{"sequence": "UCCUCCUACAGCUUGCAUAGUGUUUAGUUA", "pre-steady-state target cleavage rate": "0.211 ± 0.017"}
{"sequence": "UCCUGGUACAGCUUGCAUAGUAUUUAGUUUA", "pre-steady-state target cleavage rate": "0.375 ± 0.028"}
{"sequence": "UCCUGGAUGUCGUUGCAUAGUAUUUAAUUA", "pre-steady-state target cleavage rate": "0.0359 ± 0.013"}
{"sequence": "UCCUGGAUGUCGUUGCAAGUAUUUAGUUA", "pre-steady-state target cleavage rate": "0.00141 ± 0.005"}
{"sequence": "UCCUGGAUGUCGUUGCUUAGAAUUUAGUUA", "pre-steady-state target cleavage rate": "0.000816 ± 0.0091"}
{"sequence": "UCCUGGAUGUGCUUGCAUACUAAUUAGUUA", "pre-steady-state target cleavage rate": "0.00944 ± 0.0038"}
{"test_system": "MILI (PIWIL2) piRISC loaded with L1MC piRNA (26 nt)", "assay": "pre-steady-state target cleavage rate (min^-1); MIWI and MILI are mouse PIWI proteins and EfPiwi is from a freshwater sponge; tags in brackets are library labels; higher = faster piRNA-guided slicing of the target", "conditions": "guide: L1MC piRNA 5'p-UAACUAAAUACUAUGCAAGCUGUAGG; auxiliary factor: none (no GTSF1)", "protocol": "as §1"}
{"sequence": "UCCUGGAUGUGCUUGCAUAGAUAUUAGAAA", "pre-steady-state target cleavage rate": "0.000305 ± 0.015"}
{"sequence": "UCCUCCUACAGCUUGGAUAGUAUUUACUUA", "pre-steady-state target cleavage rate": "0.00154 ± 0.0034"}
{"sequence": "UCCUGCUAGAGCUUGCAUAGUAAUUAGUUA", "pre-steady-state target cleavage rate": "0.00448 ± 0.0023"}
{"sequence": "UCCUGGAACAGCUUGCAUAGUAUUCUAGUUA", "pre-steady-state target cleavage rate": "0.00265 ± 0.004"}
{"sequence": "UCCUGGAUGAGCAACCAUAGUAUUUACAAA", "pre-steady-state target cleavage rate": "0.000473 ± 0.015"}
{"sequence": "UCCUGGAUCAGCUUGCAUAGUUAUUUCAAA", "pre-steady-state target cleavage rate": "0.000578 ± 0.0079"}
{"sequence": "UCCUGGAACUGCUUGCAUAGUAUUAAGUUA", "pre-steady-state target cleavage rate": "0.00346 ± 0.0024"}
{"sequence": "UCCUGGAACAGCUUCCAUAGUAUUUAGAUA", "pre-steady-state target cleavage rate": "0.000498 ± 0.01"}
{"sequence": "UCCUCCUAGAGCUUGCAUAGUAUUUACAAA", "pre-steady-state target cleavage rate": "0.000972 ± 0.0061"}
{"sequence": "UCCUCCUACAGCUUGCAUACUAUUUUCAAA", "pre-steady-state target cleavage rate": "0.00113 ± 0.0044"}
{"sequence": "UCCUGGAUGAGCUUGCACUAGUAUUUAGUUA", "pre-steady-state target cleavage rate": "0.00102 ± 0.0065"}
{"sequence": "UCCUGGAUGUCCUACGAUAGUAUUUAGUUA", "pre-steady-state target cleavage rate": "0.000722 ± 0.0067"}
{"sequence": "UCCUGGAUGUCGUUGCAUAGUAUUUUCAUA", "pre-steady-state target cleavage rate": "0.000611 ± 0.0094"}
{"sequence": "UCCUGGAUGUCCUUGCAAUCAUAAAUCAAA [g14:g19:cont:t1A]", "pre-steady-state target cleavage rate": "0.000218 ± 0.025"}
{"sequence": "UCCUGGAAGAGCUUGCAUAGAAUUUAGUUA", "pre-steady-state target cleavage rate": "0.00185 ± 0.0039"}
{"sequence": "UCCUCCUACAGCUUGAAUAGUAUUUAGUUA", "pre-steady-state target cleavage rate": "0.00723 ± 0.002"}
{"sequence": "UCCUGGAUGUCGUAGCAUACUAUUUAGUUA", "pre-steady-state target cleavage rate": "0.000348 ± 0.017"}
{"sequence": "UCCUGGAUGUGCUUGCAUACAUUUUAGUAA", "pre-steady-state target cleavage rate": "0.000412 ± 0.015"}
{"sequence": "UCCUCCUACAGCUUGCAUAGUGUUUAGUUA", "pre-steady-state target cleavage rate": "0.00543 ± 0.0025"}
{"sequence": "UCCUGGUACAGCUUGCAUAGUAUUUAGUUUA", "pre-steady-state target cleavage rate": "0.0152 ± 0.005"}
{"sequence": "UCCUGGAUGUGCUUGCAUACUAUUAAGUUA", "pre-steady-state target cleavage rate": "0.000566 ± 0.013"}
{"sequence": "UCCUGGAUGUCGUUGCAUAGUAUUUAAUUA", "pre-steady-state target cleavage rate": "0.000931 ± 0.0074"}
{"sequence": "UCCUGGAUGUCGUUGCAAGUAUUUAGUUA", "pre-steady-state target cleavage rate": "0.00175 ± 0.0034"}
{"sequence": "UCCUGGAACAGCUUGCAUUGUAUUUUGUUA", "pre-steady-state target cleavage rate": "0.00156 ± 0.0034"}
{"sequence": "UCCUGGAUGUCGUUGCUUAGAAUUUAGUUA", "pre-steady-state target cleavage rate": "0.000412 ± 0.011"}
{"sequence": "UCCUGGAUGUGCUUGCAUACUAAUUAGUUA", "pre-steady-state target cleavage rate": "0.00161 ± 0.0047"}
